Data: article PMC1282572, “Avidin related protein 2 shows unique structural and functional features among the avidin protein family” (BMC Biotechnology, 2005)
These are yes or no findings as the source states them, for the method shown. Some entries that bind do so weakly or less than the wild type.

Target: Wild type AVR6 (chicken) (UniProt P56735)
Test: SEC; gel filtration of wild type AVR6, data not shown; oligomers of tetramers via disulphide bridges

binding: binds
B1: Wild type AVR6 (protein, UniProt P56735 25-150)
chain: ARKCSLTGEWDNNLGSIMTIGAVNDNGEFNGTYITAVADNPGNIKLSPLLGIQHKRACQPTFGFTVHWNFSESTSVFVGQCFVDRSGKEVLKTKWLQRLAVDDISDDWKATRVGYNNFTRQRTVEE
